Data as given in article PMC5688218.
Results are given in words; binding and its absence hold for the method and conditions named. For part of these data: In cells and extracts the contact can be indirect. Some entries that bind do so weakly or less than the wild type. For part of these data: Where a sequence is shown, tags or fusion partners need not be part of it. Blank lines part the entries; values can stand above or below the binder they belong to.

Protein sequences, listed by entry. Tags and fused reporters are not part of them. Residues count along the entry.
UniProt Q96EQ9: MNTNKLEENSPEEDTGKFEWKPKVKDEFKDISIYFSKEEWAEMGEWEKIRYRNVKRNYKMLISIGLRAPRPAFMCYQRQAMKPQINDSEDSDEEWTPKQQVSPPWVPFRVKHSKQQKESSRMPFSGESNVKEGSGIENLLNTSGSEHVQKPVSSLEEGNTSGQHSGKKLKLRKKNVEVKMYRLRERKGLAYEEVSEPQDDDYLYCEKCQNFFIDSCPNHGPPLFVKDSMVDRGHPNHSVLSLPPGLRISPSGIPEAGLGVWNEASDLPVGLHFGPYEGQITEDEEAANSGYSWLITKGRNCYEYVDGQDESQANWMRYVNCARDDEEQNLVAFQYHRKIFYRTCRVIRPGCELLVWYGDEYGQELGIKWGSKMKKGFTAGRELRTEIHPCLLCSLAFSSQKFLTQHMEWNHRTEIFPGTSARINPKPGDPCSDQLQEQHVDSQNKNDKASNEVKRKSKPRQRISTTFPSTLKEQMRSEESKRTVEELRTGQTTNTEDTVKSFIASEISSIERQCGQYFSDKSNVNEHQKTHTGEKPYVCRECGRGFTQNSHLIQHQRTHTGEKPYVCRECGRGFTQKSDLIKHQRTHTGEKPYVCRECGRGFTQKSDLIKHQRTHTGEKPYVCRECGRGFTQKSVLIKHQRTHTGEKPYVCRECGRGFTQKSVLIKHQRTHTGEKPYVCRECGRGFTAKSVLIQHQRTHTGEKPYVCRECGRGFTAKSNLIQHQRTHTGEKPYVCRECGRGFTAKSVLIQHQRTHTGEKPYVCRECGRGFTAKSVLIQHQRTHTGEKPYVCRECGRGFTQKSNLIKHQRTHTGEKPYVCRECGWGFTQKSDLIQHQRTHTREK
UniProt P21506, residues 14-85: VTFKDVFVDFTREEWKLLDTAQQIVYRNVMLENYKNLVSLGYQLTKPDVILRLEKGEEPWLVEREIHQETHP
UniProt Q9CWW7: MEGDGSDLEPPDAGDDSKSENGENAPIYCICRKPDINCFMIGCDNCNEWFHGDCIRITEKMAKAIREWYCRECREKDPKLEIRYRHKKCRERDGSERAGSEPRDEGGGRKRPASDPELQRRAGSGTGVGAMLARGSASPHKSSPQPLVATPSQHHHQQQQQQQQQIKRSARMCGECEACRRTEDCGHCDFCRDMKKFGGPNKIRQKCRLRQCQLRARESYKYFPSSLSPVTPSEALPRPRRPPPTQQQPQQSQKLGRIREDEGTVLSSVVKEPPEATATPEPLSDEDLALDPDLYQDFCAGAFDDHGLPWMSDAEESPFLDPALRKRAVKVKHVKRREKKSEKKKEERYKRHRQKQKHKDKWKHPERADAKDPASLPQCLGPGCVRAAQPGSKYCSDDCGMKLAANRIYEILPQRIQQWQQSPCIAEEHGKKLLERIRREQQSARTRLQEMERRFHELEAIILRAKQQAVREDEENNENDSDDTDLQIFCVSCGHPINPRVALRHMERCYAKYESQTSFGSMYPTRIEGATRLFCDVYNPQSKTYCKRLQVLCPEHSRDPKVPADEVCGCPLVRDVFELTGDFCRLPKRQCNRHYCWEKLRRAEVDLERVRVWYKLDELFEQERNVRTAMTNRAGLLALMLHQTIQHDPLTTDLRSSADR

Assays:
[1] = target: mouse PRDM9, full length (Gal4 BD-PRDM9 FL) (mouse) (UniProt Q96EQ9); experiment: two-hybrid; Gal4 AD fusions (Y187) mated with Gal4 BD fusions (AH109); growth of diploids on −LWH and −LWHAd after 3 days at 30 °C, by streaking or spotting; 5 mM 3-AT added to −LWH for self-activating constructs
[2] = target: KRAB domain of human KOX1 (Gal4 BD-KOX1 KRAB) (human) (UniProt P21506); experiment: as above
[3] = target: CXXC1 in mouse testis extracts (mouse (endogenous in testis)) (UniProt Q9CWW7); experiment: co-IP; mouse testis extracts, various approaches; high salt conditions required for PRDM9 extraction
[4] = target: PRDM9 in mouse testis extracts (mouse (endogenous in testis)) (UniProt Q96EQ9); experiment: as above

B3: N-terminal fragment of TRIM28 (amino acid residues 1–419), Gal4 AD fusion (domain or fragment, UniProt Q13263 1-419)
chain: MAASAAAASAAAASAASGSPGPGEGSAGGEKRSTAPSAAASASASAAASSPAGGGAEALELLEHCGVCRERLRPEREPRLLPCLHSACSACLGPAAPAAANSSGDGGAAGDGTVVDCPVCKQQCFSKDIVENYFMRDSGSKAATDAQDANQCCTSCEDNAPATSYCVECSEPLCETCVEAHQRVKYTKDHTVRSTGPAKSRDGERTVYCNVHKHEPLVLFCESCDTLTCRDCQLNAHKDHQYQFLEDAVRNQRKLLASLVKRLGDKHATLQKSTKEVRSSIRQVSDVQKRVQVDVKMAILQIMKELNKRGRVLVNDAQKVTEGQQERLERQHWTMTKIQKHQEHILRFASWALESDNNTALLLSKKLIYFQLHRALKMIVDPVEPHGEMKFQWDLNAWTKSAEAFGKIVAERPGTNSTG
- binding [2]: binds

B4: mouse CEP70, full length (Gal4 AD fusion) (protein, UniProt Q6IQY5 1-616)
chain: MTEGSQIFLLPISTSDSTKEPLSPVASKAQDPSLLSNRLMIEKQQEEAEWESINGLLMTHGFKPLCLVKGADLRDFIVFDKQSSQKMRQILKTLMEETTRQQSMIRELIETNQQLKSELQLEQNRAAHQEQRANDLQQIMDSVKSKIGELEDESLNRVCQQQNRIKDLQKEYKMLQMKCQQYKKNRMEQEGTIASLQKEIHRLAKEEEERILTQNRVFAHLCRRVPHSVLDKQLLCLIDYYECKLRKLHIQRQFEEDSQSEEKDFTNLGASPNYKGVLMSLQKQLKESKSRIDVLVGEKLSLQKDLENRPTEHELRLYKQQVKKLEKTLKKNIKLQDLIGQKKSDDTEKKDEPSKDSHQQALIEQSYFQVLCSINSIVHNPRAPVIIYKQSKGRAPNGNKDIGQDCGFEHLVPIIEMWVDELTSLKDLYKSLKILSAELVPWHSLKKLDEKEGVKVGDLLFMVDTMLEEVENQKETSSTPNSQTLQAIVSHFQKLFDVQSLNGVFPRMNEVYTRLGEMNNAVRNLQELLELDSSSSLCVVVSTVGKLCEIINKDVSEQVKQVLGPEDLQSIIKKLEEHEEFFPAFQAFANDLLEILEIDDLDAIVPAVKKLKILSY
- binding [1]: binds

B5: IHO1 in mouse testis extracts (protein, UniProt Q6PDM4 1-574)
chain: MNFNVWNVKEMLSIPSGSGITKPSNWNNNQTDCSLSDSQFLFGSQFCPENSETLLPSLDAGACLRHPKQTQQNSVDSEPSIFIKYQAKPQLLGGDTKDESLFSLPLPVGKSKGLSKQFEEKKRRATDQSDSETLHSFVSHFPEVINKLQTSVEKTEENLSSRSQSILDSVETIAKTFQETARVQHDLMVESVRDKGSMEQAILEIQRTCAARQAEFMEMKSTLKNLEVLVVEQTKNLQQFCDNLSQLIVPGILEELKKFTSVPQVAGHLKDSTSQTSPSLTQSLHFTRQEKHPSEEPATWQAQEAPAGNPSTSSQRPGECGVWDEGAESGVFQKAALPTDGLHRGDGHVKNKTVPTYCKNWVMTTRSVSNHFSNLPSQRAGNGQGLMAQGASQRDVSKFEARVKNACPEYGPQSMCSFDSLEQSATEQKGRPCRKRRRGKKQQPQRSKRGGLLDRKQGQTSKAACAFIARHHCPQSPVCDPQGPLICWLTPRSSTKSTCHILGGTGETSQTARAAQGNLVQHSQRSSTDSSSQGDQQINWFSDLSLENLEPPQCKKGGTNLLCDPDFDSSDDNF
- binding [3]: no binding
- binding [4]: no binding

Results, then the binder that gave them:

- binding [1]: binds
B1: mouse IFT88, full length (Gal4 AD fusion) (protein, UniProt Q61371 1-824)
chain: MENVHLAPETDEDDLYSGFNDYNPAYDTEELENDTGFQQAVRTSHGRRPPVTAKIPSTAVSRPIATGYGSKTSLTSSMGRPMTGTIQDGVARPMTAVRAAGFSKAALRGSAFDPLGQSRGPAPPLEAKNEDSPEEKIRQLEKKVNELVEESCIANSCGDLKLALEKAKDAGRKERVLVRQREQVTSPENINLDLTYSVLFNLASQYSANEMYAEALNTYQVIVKNKMFSNAGRLKVNMGNIYLKQRNYSKAIKFYRMALDQIPSVHKEMRIKIMQNIGITFIKTGQYSDAINSFEHIMSMAPSLKAGFNLILSCFAIGDREKMKKAFQKLIAVPLEIDEDDKYISPSDDPHTNLLIEAIKNDHLRQMERERKAMAEKYIMTAAKLIAPVIEASFAVGYNWCVEVVKASQYVELANDLEINKAITYLRQKDFNQAVDTLKMFEKKDSRVKSAAATNLSFLYYLENEFAQASSYADLAVNSDRYNPSALTNKGNTVFANGDYEKAAEFYKEALRNDSSCTEALYNIGLTYKKLNRLDEALDSFLKLHAILRNSAQVLCQIANIYELMEDPNQAIEWLMQLISVVPTDSQALSKLGELYDSEGDKSQAFQYYYESYRYFPSNIEVIEWLGAYYIDTQFCEKAIQYFERASLIQPTQVKWQLMVASCFRRSGNYQKALDTYKEIHRKFPENVECLRFLVRLCTDIGLKEVQEYATKLKRLEKMKEMREQRIKSGRDSSGGSRSKREGSAGSDSGQNNSASSKSERLSAKLRALPGTDEPYESSGNKEIDASYVDPLGPQIERPKTAAKKRIDEDDFADEELGDDLLPE

- binding [1]: binds
B2: mouse FKBP6 85–327 (Gal4 AD fusion) (domain or fragment, UniProt Q91XW8 85-327)
chain: KLGEDITLWGMELGLLSMRKGELARFLFKPAYAYGTLGCPPLIPPNATVLFEIELIDFLDSAESDKFCALSAEQQEQFPLQKVLKVAATEREFGNYLFRQNRFCDAKVRYKRALLLLHRRLATCEEQHLVEPAVLLVLLNLSFVYLKLDRPAMALRYGEQALLIDKRNAKALFRCGQACLLLTEYERARDFLVRAQKEQPCNHDINNELKKLSSHYRDYVDREREMCHRMFAPCGSRSSVGGN
